# Measurements as given in publication PMC5354749.
# Amino acid sequences for entries named in this document (tags omitted).
# UniProt P53667: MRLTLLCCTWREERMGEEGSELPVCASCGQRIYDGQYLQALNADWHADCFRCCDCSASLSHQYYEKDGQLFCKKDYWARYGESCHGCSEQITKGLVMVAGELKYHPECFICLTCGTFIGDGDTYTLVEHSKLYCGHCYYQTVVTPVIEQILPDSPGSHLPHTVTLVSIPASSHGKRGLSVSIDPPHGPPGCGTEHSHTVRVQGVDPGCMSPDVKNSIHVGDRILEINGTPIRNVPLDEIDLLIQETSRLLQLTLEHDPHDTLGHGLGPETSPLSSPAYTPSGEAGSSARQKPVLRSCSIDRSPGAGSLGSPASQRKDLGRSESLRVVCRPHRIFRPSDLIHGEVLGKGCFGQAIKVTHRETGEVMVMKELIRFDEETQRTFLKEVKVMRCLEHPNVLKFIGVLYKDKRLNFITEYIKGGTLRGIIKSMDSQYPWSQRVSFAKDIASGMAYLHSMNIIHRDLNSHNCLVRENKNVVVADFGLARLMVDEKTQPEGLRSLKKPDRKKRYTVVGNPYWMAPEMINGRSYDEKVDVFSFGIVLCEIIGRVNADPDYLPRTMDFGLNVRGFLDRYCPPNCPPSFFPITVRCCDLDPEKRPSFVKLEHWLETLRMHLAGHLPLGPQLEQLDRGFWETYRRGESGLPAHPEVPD
# These are yes or no findings as the source states them, for the method shown. In cells and extracts the contact can be indirect. Where a sequence is shown, tags or fusion partners need not be part of it.
# Molecular target: MBP-LMO2 recombinant fusion protein (human) (UniProt P25791)
# Experiment: pull-down; MBP-pulldown: MBP-LMO2 recombinant fusion protein with myc-tagged proteins from HEK293T cell lysates; 1 mg of total protein; only the target purified
substance,measurement,value
myc-tagged LIMK1 (from UniProt P53667 1-647) (enzyme),binding,no binding
